Measured values as given in PubChem BioAssay AID720591 (Broad Institute, 2013).
Among all 1,200 compounds or so, about 60 (5%) were called active. Roughly 1% stayed inconclusive and do not appear here.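 How the source made its calls: active means Decreasing signal and fitted IC50 at most twice the top valid tested dose; inconclusive means Bad fit or a level curve showing 30 to 70% inhibition; inactive means the rest.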 The list shows a part of the results. Potency and affinity values are given separately.

Protein sequences, listed by entry. Tags and fused reporters are not part of them. Lines headed by an entry give the natural chain unless they say otherwise; changes in a name come on top.
UniProt Q9NXA8: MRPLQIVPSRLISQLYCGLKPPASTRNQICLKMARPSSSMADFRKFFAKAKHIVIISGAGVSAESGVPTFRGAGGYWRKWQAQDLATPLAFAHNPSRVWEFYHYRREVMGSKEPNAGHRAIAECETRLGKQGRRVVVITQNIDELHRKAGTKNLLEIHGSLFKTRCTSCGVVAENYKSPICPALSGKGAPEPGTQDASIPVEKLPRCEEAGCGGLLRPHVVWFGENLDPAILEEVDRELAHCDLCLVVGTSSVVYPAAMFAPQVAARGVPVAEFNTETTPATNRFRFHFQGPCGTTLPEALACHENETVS

Target: NAD-dependent protein deacylase sirtuin-5, mitochondrial (Homo sapiens) (UniProt Q9NXA8)
Assay: SIRT5 desuccinylase inhibitors, dose response, biochemical, fluorescence imaging, cherry-pick, set 5 (AID 720591);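 further: 0% = median of neutral control wells and -100% = median of positive control wells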
Settings: Purified SirT5, succinyl-peptide AMC, trypsin-coupled fluorescence; at 15 µM (top of the series) unless noted

Activity change, negative = inhibition, inactive:
CNc1nc(NCc2ccccc2)c2sccc2n1 -17.5%
CCN(Cc1ccccc1)S(=O)(=O)CCNC(=O)c1ccc(OC)cc1 20.6%
Cc1ccc(Cc2c(-c3cccc(Br)c3)nc3c(Cl)cc(C(F)(F)F)cn23)cc1 -25.5%
Cc1nn(-c2ccccc2)c2[nH]c(=O)cc(C(F)F)c12 1.24%
CCCCNc1nc2ccccc2nc1NS(=O)(=O)c1ccc(F)cc1 -3.73%
OCCOCCn1c(C(CO)Nc2nc(-c3ccccc3Br)cs2)nc2ccccc21 (centres undefined) -20.5%
Cc1cc(C)n2nc(C(=O)OCC(=O)Nc3ccc(C)c(F)c3)nc2n1 1.93%
COCCNC(=O)CCCn1c(=O)c2cc(OC)c(OC)cc2n(CC(=O)c2cccc(OC)c2)c1=O -7.61%
O=C(OCCc1cc2ccccc2c(=O)o1)c1ccc(F)cc1 2.85%
COC(=O)C1CN(C(=O)COc2ccc(C)cc2)c2ccccc2O1 (centres undefined) 4.16%
Cc1ccc(CNC(=O)COC(=O)CCC(=O)c2cccs2)cc1 5.49%
C[C@H](CO)N1C[C@H](C)[C@@H](CN(C)Cc2ccccn2)Oc2ncc(Br)cc2C1=O -20.5%
C[C@H](NC(=O)C[C@@H]1C=C[C@@H](NC(=O)CN2CCOCC2)[C@@H](CO)O1)c1ccccc1 7.94%
CCOC(=O)C1CCc2c(ccc3ccccc23)N1CCC#N (centres undefined) 12.2%
CCOC(=O)C1(Cc2ccccc2)CCCN(C2CCN(C(C)=O)CC2)C1 (centres undefined) 0.363%
COc1cc2c(cc1OC)CN1CCc3cc(OC)c(OC)cc3C1C2 (centres undefined) 9.52%
CCCCCCN1CCN(C2CN(C3CCCCC3)S(=O)(=O)C2)CC1 (centres undefined) 24.6%
CCC1CCCCN1CCCNC(=O)c1c(O)nc2ccccn2c1=O (centres undefined) 10.2%
O=C(Cc1ccc(Cl)cc1)Nc1ccc(C(=O)N2CCCCC2)cc1 -15.9%
Cc1cc(F)ccc1S(=O)(=O)Nc1ncnc2sccc12 -27.5%
O=C(COC(=O)C1CC2CCCC(C1)C2=O)NNC(=O)c1ccccc1F (centres undefined) -33.5%
CC(OC(=O)CC1CCCCC1)C(=O)Nc1ccc(F)cc1 (centres undefined) 1.33%
CC(C)C1C(=O)N(Cc2cn(Cc3ccco3)nn2)CCS(=O)(=O)N1Cc1ccc(-c2ccc(F)cc2)cc1 (centres undefined) -13.4%
CCc1cc2c(=O)c(-c3nc4ccccc4n3C)coc2c(CN2CCCCC2)c1O 32.2%
COc1ccccc1CN(C)S(=O)(=O)c1cccs1 -11.8%
CCOc1cccc(CN2CCCC(N3CCN(c4cccc(Cl)c4)CC3)C2)c1O (centres undefined) 6.16%
Cc1ccc(S(=O)(=O)NC(=O)c2ccc(Br)o2)cc1 -23%
CCC(NC(=O)NCc1ccccc1)(C(F)(F)F)C(F)(F)F 26.1%
O=C(Nc1cccc(-c2cn3ccccc3n2)c1)c1cc2ccccc2oc1=O -6.87%
Cc1ccc(NC(=O)CNC(=O)c2ccc(OC(F)F)cc2)cc1S(=O)(=O)N1CCCCCC1 -33.5%
Cc1cc(C)c(NC(=O)CN(C)C(=O)CNC(=O)c2cccs2)c(C)c1 -17.8%
COC(=O)c1ccc2nc(-c3ccc(C)cc3)c(Cc3ccccc3)n2c1 6.46%
Cc1ccc(S(=O)(=O)N2CCC(C(=O)OCC(=O)N(C)Cc3ccccc3)CC2)cc1C -3.55%
COc1ccccc1OCC(=O)OCc1cc(-c2ccco2)on1 -24.6%
Cc1cc2nc(CSc3ccccc3)cc(=O)n2[nH]1 -15.6%
CC(C)CCN1CCN(Cc2cnc(N3CCCC3)s2)CC1CCO (centres undefined) 10.1%
CCCCNC(=O)C[C@@H]1C[C@@]2(C(=O)OC)CC(C)(C)CC=C2N(Cc2ccco2)C1=O 2.48%
CCC(CO)NC(=O)c1ccccc1C(F)(F)F (centres undefined) 1.57%
COc1ccc(C2=NN(C(=O)CCC(=O)O)C(c3ccc(OC)cc3)C2)cc1 (centres undefined) 2.15%
Cc1ccccc1OCC(O)CN1CCN(CC(O)COc2ccccc2C)CC1 (centres undefined) 8.37%
Cc1cccc(C)c1NC(=O)CN(Cc1ccccc1)Cc1ccccc1 17.6%
Cc1cc(C)c(OCC(=O)NCC(C)(C)N2CCOCC2)c(C)c1 -12.2%
COC(=O)C1=C(C(=O)OC)[C@@H]2Nc3ccccc3[C@@]23C[C@@H](C(=O)OC)N(C(=O)CC(C)C)C3=N1 -25.6%
CCOC(=O)CN(C(=O)CSc1nnc(COc2ccc(OC)cc2)n1CC)c1ccccc1 -25.8%
CCCCOc1ccc(S(=O)(=O)NNC(=O)c2cc3ccccc3o2)cc1 -2.05%
CCc1nc2ccc(C(=O)N(CC)CCN(C)C)cn2c1N(CC)C(=O)NCCc1ccccc1 9.33%
COc1ncnc2c1ncn2CCCN1CCN(Cc2cccc3ccccc23)CC1 8.16%
COc1ccc(-c2nnn(CC(=O)N(Cc3ccccc3Cl)C(C(=O)NCC3CCCO3)c3ccco3)n2)cc1 (centres undefined) -5.83%
O=C(CNC(=O)c1cccc(F)c1)OCC(=O)N1CCN(C(=O)c2ccco2)CC1 4.92%
CN(Cc1ccccc1)S(=O)(=O)c1cccc(C(=O)O)c1 -24.7%
O=C1OCCOC2CCCc3oc(C4=CCCCC4)c1c32 (centres undefined) -23.7%
CC(=O)Nc1ccc(NC(=O)CN2CCN(c3ccccn3)CC2)cc1 -3.57%
O=C(Nc1cccc(S(=O)(=O)N2CCOCC2)c1)C1CC1 -26.7%
CCN(CC)c1ccc(S(=O)(=O)N2CCOCC2)cc1NC(=O)Nc1ccccc1 -11.5%
COc1ccc(NC(=O)CN(c2ccc(Cl)cc2)S(C)(=O)=O)cc1OC 3.15%
Cc1cccc(N(CC(=O)NC(C)(C)C)C(=O)CS(=O)CC(=O)Nc2ccc(F)cc2)c1 (centres undefined) -28.7%
O=C(C[C@H]1C[C@H](C(=O)N2CCOCC2)[C@@]2(CCC3CCCC3)c3[nH]c4cc(-c5ccco5)ccc4c3CCN2C1=O)NCc1ccco1 -32%
O=C(NCc1ccccn1)C1CCC(=O)N(Cc2ccc(Cl)cc2)C1 (centres undefined) -22.8%
COC(=O)[C@]12CCCCC=C1N(Cc1cccc3ccccc13)C(=O)[C@H](CC(=O)NCC1CCCCC1)C2 -6.36%
CN(Cc1ccccc1)c1nc2c(c(=O)[nH]c(=O)n2C)n1Cc1ccccc1 -17.1%
CC(=O)O[C@H]1CC[C@@]2(C)[C@@H](CC[C@H]3[C@@H]4CC[C@H](C(C)O)[C@@]4(C)CC(=O)[C@@H]32)C1 (some centres undefined) 5.98%
Clc1cc(Br)ccc1OCCN1CCOCC1 5.8%
O=C(O)c1ccc(OCC(O)Cn2c3ccccc3c3ccccc32)cc1 (centres undefined) 6.95%
Cc1c(C(=O)c2ccc(N(C)C)cc2)c2ccccn2c1CCC#N -5.98%
O=C(O)c1ccc2oc(=O)c(S(=O)(=O)c3ccccc3)cc2c1 22.8%
COc1ccc(Nc2oc(COc3ccccc3OC)nc2C#N)cc1 18.8%
CCC(C(=O)NCCCN1CC(C)CC(C)C1)n1nc(C)c2sc3ccccc3c2c1=O (centres undefined) -26.1%
CCOc1ccc(C(=O)CSCCC(=O)O)cc1 7.71%
O=S(=O)(Nc1ncccn1)c1cc(Cl)ccc1Cl -6.52%
Cc1ccc(NC(=O)c2cnn(-c3ccccc3)c2C)c(C)c1 -25.8%
O=C(CS(=O)c1ccc(Br)cc1)N1CCOCC1 (centres undefined) -25.4%
Cc1cccc(OCC(=O)NNC(=O)C2CCCCC2C(=O)O)c1 (centres undefined) 5.18%
CNC(=O)C1CC(=O)N(c2ccc(OCC(=O)NCc3ccccc3)cc2)C1 (centres undefined) -28.2%
COC(=O)C1=NNC(C(=O)c2ccco2)C1c1ccccc1 (centres undefined) 17.5%
CSc1nsc(SCC(=O)Nc2ccc(Cl)c(C(=O)O)c2)n1 -17.9%
COc1ccc(NC(=O)CN2CCN(c3ccccn3)CC2)cc1Cl 5.95%
CCCN1C(C)C(C(=O)OCC)=CN(Cc2ccc(Br)cc2)S1(=O)=O (centres undefined) -5.53%
CCn1ccnc1CN(C)Cc1cn(-c2ccc(C)cc2)nc1-c1ccc(F)cc1 -10.5%
CCOC(=O)C1CCN(C(=O)CC2C(=O)N(Cc3ccccc3)C(C)c3nc4ccccc4n32)CC1 (centres undefined) -10.7%
COC(CNC(=O)CC1C(=O)N(Cc2ccccc2)C(C)c2nc3ccccc3n21)OC (centres undefined) 16.8%
Cc1ccc(S(=O)(=O)NC(=O)Nc2ccc(C)cn2)cc1 -30.6%
Cc1cc(NC(=O)c2ccno2)no1 -15.9%
Cc1ccc(NS(=O)(=O)c2ccc3c(c2)N(C)CCO3)cc1 -1.07%
CCCCCCCCCCCCC(NC(C)=O)(C(=O)OCC)C(=O)OCC -29.9%
Cc1ccccc1N1C(=O)C2ON(c3ccccc3)C(c3ccco3)C2C1=O (centres undefined) -10.9%
CN(C(=O)c1cccc(NC(=O)Cc2ccc(NC(=O)C3CCN(C(=O)C4CCCCC4)CC3)cc2)c1)C1CCCCC1 8.34%
NC(=O)CCN1CCC(c2nc3ccccc3s2)CC1 -1.08%
O=C(NC1CCCCC1)C(c1ccco1)N(C(=O)c1csnn1)c1cccc(Cl)c1 (centres undefined) -0.984%
CCOc1cccc(CN2CCC(N3CCC(C(=O)NCC4CCCO4)CC3)CC2)c1 (centres undefined) 0.75%

Five compounds already listed, sorted by number of heavy atoms, largest number first.
Activity change, negative = inhibition, inactive:
Cc1ccc(S(=O)(=O)N2CCC(C(=O)OCC(=O)N(C)Cc3ccccc3)CC2)cc1C -3.55%
C[C@H](CO)N1C[C@H](C)[C@@H](CN(C)Cc2ccccn2)Oc2ncc(Br)cc2C1=O -20.5%
CCCCOc1ccc(S(=O)(=O)NNC(=O)c2cc3ccccc3o2)cc1 -2.05%
COc1ccc(NC(=O)CN(c2ccc(Cl)cc2)S(C)(=O)=O)cc1OC 3.15%
CCCCCCN1CCN(C2CN(C3CCCCC3)S(=O)(=O)C2)CC1 (centres undefined) 24.6%

For reference, 2 of the compounds above.
Activity change, negative = inhibition, inactive:
Cc1nn(-c2ccccc2)c2[nH]c(=O)cc(C(F)F)c12 1.24%
CCCCNc1nc2ccccc2nc1NS(=O)(=O)c1ccc(F)cc1 -3.73%
